Reference: the supplement of paper PMC6411743
± gives the standard deviation of the averaged measurements. Only a part is listed here, and it is no random draw.

Amino acid sequences for entries named in this document (tags omitted). A change or cut given only in a name is not applied to a line headed by its entry.
UniProt Q9Y2Q5, whole entry: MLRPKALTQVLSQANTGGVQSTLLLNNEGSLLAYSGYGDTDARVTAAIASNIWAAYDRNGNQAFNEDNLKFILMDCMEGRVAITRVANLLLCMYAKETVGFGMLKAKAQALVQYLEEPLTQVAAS
UniProt Q9Y6D9: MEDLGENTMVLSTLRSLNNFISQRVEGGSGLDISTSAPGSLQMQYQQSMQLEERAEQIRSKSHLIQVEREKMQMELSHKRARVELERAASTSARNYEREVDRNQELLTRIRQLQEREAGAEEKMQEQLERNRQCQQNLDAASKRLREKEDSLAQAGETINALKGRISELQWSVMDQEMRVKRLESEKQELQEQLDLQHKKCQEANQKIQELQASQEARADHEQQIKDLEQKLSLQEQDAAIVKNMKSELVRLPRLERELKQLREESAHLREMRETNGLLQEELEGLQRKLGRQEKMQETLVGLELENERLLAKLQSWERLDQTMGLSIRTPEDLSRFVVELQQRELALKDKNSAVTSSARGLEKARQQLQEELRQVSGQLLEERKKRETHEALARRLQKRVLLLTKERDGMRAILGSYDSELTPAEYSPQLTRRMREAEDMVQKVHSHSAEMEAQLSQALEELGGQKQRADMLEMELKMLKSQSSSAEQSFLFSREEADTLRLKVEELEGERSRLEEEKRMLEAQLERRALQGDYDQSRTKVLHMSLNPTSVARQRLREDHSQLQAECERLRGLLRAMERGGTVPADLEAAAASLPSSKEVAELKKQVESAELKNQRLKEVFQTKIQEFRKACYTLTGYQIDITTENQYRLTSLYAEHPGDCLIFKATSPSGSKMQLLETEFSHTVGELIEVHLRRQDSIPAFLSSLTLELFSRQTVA
UniProt Q9Y576: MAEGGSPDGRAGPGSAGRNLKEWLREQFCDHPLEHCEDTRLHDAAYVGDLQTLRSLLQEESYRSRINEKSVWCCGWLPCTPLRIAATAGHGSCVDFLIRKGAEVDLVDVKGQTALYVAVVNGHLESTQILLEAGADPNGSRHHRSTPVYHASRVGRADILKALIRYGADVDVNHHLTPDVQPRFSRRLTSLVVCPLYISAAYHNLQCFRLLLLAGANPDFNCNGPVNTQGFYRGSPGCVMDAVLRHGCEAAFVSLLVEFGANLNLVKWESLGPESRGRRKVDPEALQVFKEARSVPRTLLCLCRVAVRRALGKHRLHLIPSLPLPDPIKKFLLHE
UniProt Q9Y4R8, whole entry: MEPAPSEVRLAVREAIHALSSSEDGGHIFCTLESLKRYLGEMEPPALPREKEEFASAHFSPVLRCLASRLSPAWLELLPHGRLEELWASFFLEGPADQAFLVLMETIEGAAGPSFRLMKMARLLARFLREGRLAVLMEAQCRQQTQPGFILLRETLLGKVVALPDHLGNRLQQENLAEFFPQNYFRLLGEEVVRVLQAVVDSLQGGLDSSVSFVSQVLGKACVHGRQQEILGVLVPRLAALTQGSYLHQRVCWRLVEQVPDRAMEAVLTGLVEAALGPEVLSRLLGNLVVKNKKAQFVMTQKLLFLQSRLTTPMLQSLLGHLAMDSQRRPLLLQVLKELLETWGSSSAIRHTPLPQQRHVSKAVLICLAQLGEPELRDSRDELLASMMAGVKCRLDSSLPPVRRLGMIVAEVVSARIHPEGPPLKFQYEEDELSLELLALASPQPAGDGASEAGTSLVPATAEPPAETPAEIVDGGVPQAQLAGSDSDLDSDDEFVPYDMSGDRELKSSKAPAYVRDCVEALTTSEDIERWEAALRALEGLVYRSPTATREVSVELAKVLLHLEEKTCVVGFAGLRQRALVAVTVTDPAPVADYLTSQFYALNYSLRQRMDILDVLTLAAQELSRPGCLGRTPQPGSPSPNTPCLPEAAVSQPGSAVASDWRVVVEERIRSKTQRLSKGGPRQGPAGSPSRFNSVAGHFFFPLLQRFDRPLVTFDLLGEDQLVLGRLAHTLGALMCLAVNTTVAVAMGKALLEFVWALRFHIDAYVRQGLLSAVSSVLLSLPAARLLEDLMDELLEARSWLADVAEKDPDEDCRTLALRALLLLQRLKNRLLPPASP
UniProt Q9Y657, whole entry: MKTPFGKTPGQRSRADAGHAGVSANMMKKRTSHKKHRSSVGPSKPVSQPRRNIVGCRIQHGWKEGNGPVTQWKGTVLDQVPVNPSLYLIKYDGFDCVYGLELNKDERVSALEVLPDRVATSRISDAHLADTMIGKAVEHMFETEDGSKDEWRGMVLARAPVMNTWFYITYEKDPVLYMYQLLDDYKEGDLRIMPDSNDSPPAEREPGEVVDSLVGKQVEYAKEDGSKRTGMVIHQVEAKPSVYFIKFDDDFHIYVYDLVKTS
UniProt Q9Y3F4: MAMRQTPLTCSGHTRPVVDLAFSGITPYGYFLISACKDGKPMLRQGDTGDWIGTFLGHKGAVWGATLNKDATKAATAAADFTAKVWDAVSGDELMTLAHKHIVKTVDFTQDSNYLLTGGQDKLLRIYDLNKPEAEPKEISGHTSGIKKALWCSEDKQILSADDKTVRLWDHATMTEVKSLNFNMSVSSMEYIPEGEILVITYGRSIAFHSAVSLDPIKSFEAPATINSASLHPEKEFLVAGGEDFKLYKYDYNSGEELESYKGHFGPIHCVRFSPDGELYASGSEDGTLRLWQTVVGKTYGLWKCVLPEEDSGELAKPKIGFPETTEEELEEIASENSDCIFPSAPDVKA
UniProt Q9Y5Z7: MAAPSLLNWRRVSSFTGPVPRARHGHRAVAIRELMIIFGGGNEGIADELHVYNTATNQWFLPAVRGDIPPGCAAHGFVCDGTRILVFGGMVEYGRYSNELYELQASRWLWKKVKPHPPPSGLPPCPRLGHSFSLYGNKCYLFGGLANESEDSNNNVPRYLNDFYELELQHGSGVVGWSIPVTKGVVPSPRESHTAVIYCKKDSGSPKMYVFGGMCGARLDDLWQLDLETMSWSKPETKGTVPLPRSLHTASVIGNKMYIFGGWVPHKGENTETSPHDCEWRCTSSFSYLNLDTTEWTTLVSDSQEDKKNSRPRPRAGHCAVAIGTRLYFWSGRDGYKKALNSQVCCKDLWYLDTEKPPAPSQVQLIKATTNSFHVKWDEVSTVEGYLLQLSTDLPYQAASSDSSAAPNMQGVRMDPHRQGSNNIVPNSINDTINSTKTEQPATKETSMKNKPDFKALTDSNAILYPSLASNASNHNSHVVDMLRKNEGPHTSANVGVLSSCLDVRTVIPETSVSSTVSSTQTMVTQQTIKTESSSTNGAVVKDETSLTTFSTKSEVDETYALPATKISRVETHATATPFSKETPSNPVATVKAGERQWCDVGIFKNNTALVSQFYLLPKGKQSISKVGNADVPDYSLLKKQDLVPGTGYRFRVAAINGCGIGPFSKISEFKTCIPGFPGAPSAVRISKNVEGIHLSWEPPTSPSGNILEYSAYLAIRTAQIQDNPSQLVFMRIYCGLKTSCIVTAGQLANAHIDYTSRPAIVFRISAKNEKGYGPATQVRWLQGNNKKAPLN
UniProt Q9Y3A6: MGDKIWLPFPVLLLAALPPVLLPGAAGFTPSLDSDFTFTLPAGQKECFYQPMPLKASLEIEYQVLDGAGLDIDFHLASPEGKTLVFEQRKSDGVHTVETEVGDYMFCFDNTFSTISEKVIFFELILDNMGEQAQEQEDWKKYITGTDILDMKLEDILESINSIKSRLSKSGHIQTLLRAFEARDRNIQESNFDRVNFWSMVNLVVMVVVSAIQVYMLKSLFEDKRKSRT
UniProt Q9Y6B6: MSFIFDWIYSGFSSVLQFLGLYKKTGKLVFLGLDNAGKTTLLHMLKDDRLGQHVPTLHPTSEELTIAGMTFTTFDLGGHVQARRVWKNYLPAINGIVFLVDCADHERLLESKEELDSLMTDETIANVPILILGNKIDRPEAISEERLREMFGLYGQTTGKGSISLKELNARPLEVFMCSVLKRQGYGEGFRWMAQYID
UniProt Q9Y3L5: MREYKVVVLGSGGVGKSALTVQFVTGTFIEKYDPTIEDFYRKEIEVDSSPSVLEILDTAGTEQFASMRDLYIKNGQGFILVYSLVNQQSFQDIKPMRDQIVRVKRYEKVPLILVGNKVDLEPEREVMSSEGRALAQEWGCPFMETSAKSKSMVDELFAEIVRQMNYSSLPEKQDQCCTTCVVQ
UniProt Q9Y5W9: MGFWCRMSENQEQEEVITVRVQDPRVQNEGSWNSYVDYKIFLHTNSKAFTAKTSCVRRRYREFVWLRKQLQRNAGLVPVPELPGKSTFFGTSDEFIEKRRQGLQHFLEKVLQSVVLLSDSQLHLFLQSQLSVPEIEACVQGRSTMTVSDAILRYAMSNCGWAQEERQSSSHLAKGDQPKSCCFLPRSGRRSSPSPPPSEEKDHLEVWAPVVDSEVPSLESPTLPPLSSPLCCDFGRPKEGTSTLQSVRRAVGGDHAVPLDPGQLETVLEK
UniProt Q9Y6W3: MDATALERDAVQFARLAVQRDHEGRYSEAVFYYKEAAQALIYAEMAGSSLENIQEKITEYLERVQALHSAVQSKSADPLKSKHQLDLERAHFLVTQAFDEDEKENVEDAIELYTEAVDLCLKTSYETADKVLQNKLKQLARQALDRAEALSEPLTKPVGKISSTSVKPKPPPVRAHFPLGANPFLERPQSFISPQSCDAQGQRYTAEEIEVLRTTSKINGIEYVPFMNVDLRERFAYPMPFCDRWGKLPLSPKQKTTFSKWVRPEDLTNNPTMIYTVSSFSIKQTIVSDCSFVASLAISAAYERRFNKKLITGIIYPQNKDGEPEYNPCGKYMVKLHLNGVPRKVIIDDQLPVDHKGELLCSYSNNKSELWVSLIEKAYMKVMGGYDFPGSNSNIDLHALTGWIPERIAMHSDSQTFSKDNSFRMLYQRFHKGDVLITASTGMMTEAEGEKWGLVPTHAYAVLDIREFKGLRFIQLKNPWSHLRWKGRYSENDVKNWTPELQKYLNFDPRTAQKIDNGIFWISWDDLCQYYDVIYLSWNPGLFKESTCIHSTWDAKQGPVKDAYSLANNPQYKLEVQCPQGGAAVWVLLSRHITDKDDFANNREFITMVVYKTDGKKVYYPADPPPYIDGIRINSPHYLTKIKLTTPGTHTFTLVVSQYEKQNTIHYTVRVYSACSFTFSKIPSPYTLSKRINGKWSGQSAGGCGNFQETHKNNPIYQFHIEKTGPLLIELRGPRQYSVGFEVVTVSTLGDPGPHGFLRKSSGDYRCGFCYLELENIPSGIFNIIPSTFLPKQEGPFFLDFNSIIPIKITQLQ

Compound: Nc1ncnc2c1ncn2[C@@H]1O[C@H](COP(=O)(O)OP(=O)(O)OP(=O)(O)O)[C@@H](O)[C@H]1O [adenosine triphosphate]
Assay: NP40-soluble protein abundance relative to vehicle (solubility fold change) (ratio); higher = more soluble protein in presence of ATP
In short: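 Data come from three independent experiments in which Dounce-homogenised Jurkat crude lysate was treated at eight concentrations from 0.1 to 10 mM. Treatment ran 10 min at room temperature and then 3 min at 37 °C, after which 0.8% NP40 and benzonase were added for 60 min at 4 °C before ultracentrifugation. The supernatant underwent TMT labelling and LC-MS/MS, and vsn-normalised intensities were expressed as fold change against the detergent-processed vehicle in each replicate.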

Target | NP40-soluble protein abundance (concentration: 1mM) | NP40-soluble protein abundance (concentration: 2mM) | NP40-soluble protein abundance (concentration: 4mM) | NP40-soluble protein abundance (concentration: 6mM) | NP40-soluble protein abundance (concentration: 8mM) | NP40-soluble protein abundance (concentration: 10mM)
UniProt Q9Y2Q5 and related entries | 0.883 ± 0.068 | 0.967 ± 0.053 | 0.928 ± 0.026 | 0.833 ± 0.08 | 0.856 ± 0.055 | 0.859 ± 0.088
UniProt Q9Y6P5-2 | 1.13 ± 0.17 | 0.991 ± 0.15 | 1.03 ± 0.082 | 0.978 ± 0.082 | 1.07 ± 0.017 | 1.09 ± 0.019
MAD1L1 (UniProt Q9Y6D9) | 0.98 ± 0.017 | 0.982 ± 0.015 | 0.98 ± 0.012 | 1 ± 0.017 | 0.956 ± 0.029 | 0.959 ± 0.016
ASB1 (UniProt Q9Y576) | 0.952 ± 0.024 | 0.913 ± 0.14 | 1.06 ± 0.081 | 0.997 ± 0.091 | 0.924 ± 0.031 | 0.928 ± 0.013
TELO2 (UniProt Q9Y4R8) | 1.04 ± 0.12 | 1 ± 0.058 | 0.981 ± 0.029 | 0.933 ± 0.06 | 0.994 ± 0.048 | 0.991 ± 0.05
SPIN1 (UniProt Q9Y657) | 1.13 ± 0.065 | 1.16 ± 0.054 | 1.21 ± 0.046 | 1.27 ± 0.013 | 1.22 ± 0.055 | 1.25 ± 0.044
UniProt Q9Y3F4 and related entries | 1.01 ± 0.023 | 0.982 ± 0.031 | 0.936 ± 0.028 | 0.987 ± 0.037 | 0.973 ± 0.028 | 0.953 ± 0.04
UniProt Q9Y3U8 | 1.03 ± 0.11 | 1.05 ± 0.081 | 1.08 ± 0.13 | 1.01 ± 0.11 | 0.77 ± 0.13 | 1.07 ± 0.08
HCFC2 (UniProt Q9Y5Z7) | 0.945 ± 0.089 | 1.01 ± 0.16 | 1.07 ± 0.058 | 1.16 ± 0.054 | 1.06 ± 0.087 | 1.12 ± 0.12
TMED5 (UniProt Q9Y3A6) | 0.997 ± 0.12 | 0.981 ± 0.068 | 0.941 ± 0.037 | 0.895 ± 0.12 | 0.954 ± 0.081 | 0.94 ± 0.054
SAR1B (UniProt Q9Y6B6) | 1 ± 0.082 | 1.01 ± 0.021 | 0.967 ± 0.045 | 0.989 ± 0.16 | 1.03 ± 0.07 | 0.96999 ± 0.00063
UniProt Q9Y3L5 | 1.06 ± 0.062 | 1.08 ± 0.045 | 1.09 ± 0.12 | 1.12 ± 0.13 | 1.12 ± 0.057 | 1.11 ± 0.083
MRPS18B (UniProt Q9Y676) | 0.963 ± 0.15 | 0.873 ± 0.15 | 0.913 ± 0.17 | 0.894 ± 0.22 | 0.892 ± 0.2 | 0.82 ± 0.18
UniProt Q9Y5W9 and related entries | 0.958 ± 0.14 | 1.03 ± 0.079 | 0.973 ± 0.14 | 0.949 ± 0.12 | 0.892 ± 0.082 | 0.966 ± 0.095
CAPN7 (UniProt Q9Y6W3) | 1.08 ± 0.092 | 1.04 ± 0.042 | 1.07 ± 0.067 | 1.02 ± 0.088 | 1.03 ± 0.051 | 1.01 ± 0.029

Random excerpt: two records from the list
Target | NP40-soluble protein abundance (concentration: 1mM) | NP40-soluble protein abundance (concentration: 2mM) | NP40-soluble protein abundance (concentration: 4mM) | NP40-soluble protein abundance (concentration: 6mM) | NP40-soluble protein abundance (concentration: 8mM) | NP40-soluble protein abundance (concentration: 10mM)
SPIN1 (UniProt Q9Y657) | 1.13 ± 0.065 | 1.16 ± 0.054 | 1.21 ± 0.046 | 1.27 ± 0.013 | 1.22 ± 0.055 | 1.25 ± 0.044
UniProt Q9Y5W9 and related entries | 0.958 ± 0.14 | 1.03 ± 0.079 | 0.973 ± 0.14 | 0.949 ± 0.12 | 0.892 ± 0.082 | 0.966 ± 0.095
